Amino acid sequences for entries named in this document (tags omitted). A change or cut given only in a name is not applied to a line headed by its entry.
UniProt P18054: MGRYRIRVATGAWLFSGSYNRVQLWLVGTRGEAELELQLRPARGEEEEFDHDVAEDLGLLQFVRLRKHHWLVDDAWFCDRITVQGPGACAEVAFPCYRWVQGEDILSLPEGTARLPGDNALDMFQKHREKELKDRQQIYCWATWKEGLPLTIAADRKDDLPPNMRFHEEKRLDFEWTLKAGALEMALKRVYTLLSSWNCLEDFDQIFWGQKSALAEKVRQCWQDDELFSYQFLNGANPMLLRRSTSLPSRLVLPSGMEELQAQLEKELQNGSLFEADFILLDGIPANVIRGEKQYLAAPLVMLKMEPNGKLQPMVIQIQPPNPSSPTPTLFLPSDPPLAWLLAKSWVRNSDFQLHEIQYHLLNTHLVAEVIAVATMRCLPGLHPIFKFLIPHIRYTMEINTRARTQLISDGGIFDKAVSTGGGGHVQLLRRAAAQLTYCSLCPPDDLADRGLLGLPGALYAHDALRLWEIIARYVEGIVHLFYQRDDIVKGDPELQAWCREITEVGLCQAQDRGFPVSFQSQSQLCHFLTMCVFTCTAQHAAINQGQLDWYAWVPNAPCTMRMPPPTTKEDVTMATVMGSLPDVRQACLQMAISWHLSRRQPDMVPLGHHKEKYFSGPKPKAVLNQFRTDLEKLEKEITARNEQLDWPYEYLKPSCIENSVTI

Hit rate of the full screen: of about 580,000 compounds, about 6,100 (1.1%) were called active. Inconclusive means that the source gave no clear call. Such entries were picked first, then a sample of the others. Calls follow the shape of the dose curve; as a rule, active = well fitted inhibition curve with a large enough effect; inconclusive = small, poorly fitted or top-dose-only effect, or another doubt; inactive = no such curve, though single readings can be large or run the other way. Potencies beside an inconclusive call are fits to weak or partial responses and may not hold up.
These compounds were tested against Polyunsaturated fatty acid lipoxygenase ALOX12 (Homo sapiens) (UniProt P18054) (assay: Primary qHTS assay for inhibitors of human arachidonate 12S-lipoxygenase (ALOX12): Round 2). Details: purified 12hLO, xylenol orange hydroperoxide absorbance; activity change, negative = inhibition: at 108 µM (top of the series) unless noted.
Outline: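 Hydroperoxide product was detected by ferrous iron/xylenol orange as the 573 to 405 nm absorbance ratio. Arachidonic acid at 40 uM (final) was turned over for 30 min at room temperature by 150 nM human 12hLO, pH 7.0 Hepes buffer, after 15 min compound preincubation.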
In the case of `Cn1cc(C(=O)N2CCOc3c(O)cc(-c4csc5ccccc45)cc3C2)cn1`, the Potency is reported as inconclusive: 44.7 µM [inhibitor, partial curve, poor fit].
In the case of `F[C@@H]1CN(Cc2cccnc2)C[C@@H]1OCc1nc2ccc(C(F)(F)F)cc2[nH]1`, the Potency is reported as “inactive”.
In the case of `Cc1ccccc1OCC(O)CN(Cc1ccccc1)Cc1ccccc1` (stereo unspecified), the Potency is reported as inconclusive: 28.2 µM [inhibitor, partial curve, poor fit].
With `O=C(NCCNc1ccc(C(F)(F)F)cn1)C1CC=CCC1` (stereo unspecified) the Potency was inconclusive: 126 µM [inhibitor, single point].
For `O=C(NCCc1ccccc1)C1CCC(CNS(=O)(=O)c2ccccc2)CC1` (stereo unspecified), the activity change, negative = inhibition was inconclusive: -34.1% [inhibitor].
For `COc1ccc(-c2noc(CCC(=O)N(C)c3cccc(C)c3)n2)cc1`, the Potency was “inactive”.
`O=C(CC(NC(=O)c1ccccc1)c1ccccc1)NC12CC3CC(CC(C3)C1)C2` (stereo unspecified) was tested, and the Potency was “inactive”.
For `CCN(CC)Cc1cnc2c(C(=O)N3CCOC(C(F)(F)F)C3)cnn2c1` (stereo unspecified), the Potency was “inactive”.
For `CC(C)(C)c1ccc(C(=O)N2CCNCC2)cc1`, the Potency was inconclusive: 126 µM [inhibitor, single point].
For `CC(Nc1ccc(S(=O)(=O)N2CCN(C)CC2)cc1[N+](=O)[O-])c1ccccc1` (stereo unspecified), the Potency was inconclusive: 89.1 µM [inhibitor, partial curve, poor fit].
With `N#CCCCSc1nnc(Cc2ccc3c(c2)OCO3)o1` the Potency was inconclusive: 63.1 µM [inhibitor, partial curve, poor fit].
In the case of `Cc1ccc(-c2nonc2NC(=O)c2ccco2)cc1`, the Potency is reported as inconclusive: 100 µM [inhibitor, single point].
In the case of `COc1ccc(C(=O)N/C(=C\c2cn(C)c3ccccc23)C(=O)N2CCOCC2)cc1`, the Potency is reported as inconclusive: 50.1 µM [inhibitor, partial curve, poor fit].
`Cc1ncc2c(c1CNC(=O)c1ccccc1N1CCOCC1)CCNC2` was tested, and the Potency was inconclusive: 3.98 µM [inhibitor, full curve, poor fit].
With `CCCCNc1nc2c(S(=O)(=O)c3ccc(C)c(C)c3)nnn2c2ccsc12` the Potency was “inactive”.
With `CCCCN=c1scc(-c2ccc3c(c2)NC(=O)CO3)n1N=C1CCCC1` the Potency was inconclusive: 10 µM [inhibitor, full curve, poor fit].
`COc1ccc(S(=O)(=O)NCC2CCCN(Cc3ccc(-c4ccco4)cc3)C2)cc1` (stereo unspecified) was tested, and the Potency was inconclusive: 3.55 µM [inhibitor, full curve].
`COC(=O)c1cc(C(=O)c2ccc(C(C)(C)C)cc2)c[nH]1` was tested, and the Potency was inconclusive: 112 µM [inhibitor, single point].
With `CN(C(=O)c1ccc(NC(=O)Cc2ccc(NC(=O)C3CCN(C(=O)C4CCC4)CC3)cc2)cc1)C1CCCC1` the Potency was “inactive”.
For `COc1cc(Nc2ncc3c(n2)CCN(Cc2cc(Br)cs2)C3)cc(OC)c1`, the Potency was inconclusive: 50.1 µM [inhibitor, partial curve, poor fit].
With `N#C/C(=C/c1cccc(OCc2cccc(C#N)c2)c1)c1ccc(C(F)(F)F)cn1` the Potency was inconclusive: 100 µM [inhibitor, single point].
For `CCOC(=O)C1CCCN(CCC(=O)Nc2ccc(Br)cc2)C1` (stereo unspecified), the Potency was inconclusive: 50.1 µM [inhibitor, partial curve, poor fit].
With `O=C(CNC(=O)c1ccccc1)NCCc1c[nH]c2ccccc12` the Potency was “inactive”.
`COc1ccc(-c2c3c(=O)n(C)c(=O)n(C)c3c3n2C(C)(C)COC3c2cccc(OC)c2)cc1` (stereo unspecified) was tested, and the Potency was inconclusive: 56.2 µM [inhibitor, single point].
With `Cc1sc(NC(=O)Cc2ccc3c(c2)OCO3)nc1-c1ccc2c(c1)CCN2C(=O)c1ccccc1F` the Potency was “inactive”.
`CCn1cc(CN(C)C(=O)CSc2nc(-c3ccco3)cc(C(F)(F)F)n2)c(C)n1` was tested, and the Potency was “inactive”.
For `COc1ccc(S(=O)(=O)NC(=O)C2(C)CCN2C(=O)Cc2cc(C)cc(C)c2)cc1OC` (stereo unspecified), the Potency was inconclusive: 50.1 µM [inhibitor, partial curve, poor fit].
In the case of `CC(=O)N1CCc2ccc(S(=O)(=O)N3CCCc4ccccc43)cc2C1`, the Potency is reported as “inactive”.
`Cc1sc2nc(CSC(C)C(=O)Nc3ccc(C#N)cc3)[nH]c(=O)c2c1C` (stereo unspecified) was tested, and the Potency was inconclusive: 31.6 µM [inhibitor, partial curve, poor fit].
For `COc1cccc(C(=O)COC(=O)C(CC(=O)c2ccccc2)Nc2ccc(F)cc2)c1` (stereo unspecified), the Potency was “inactive”.
With `Cc1ccsc1/C=C(/C#N)C(=O)c1ccccc1` the Potency was inconclusive: 39.8 µM [inhibitor, partial curve, poor fit].
With `CCOc1cc(Br)c(/C=C2/NC(=O)NC2=O)cc1OCC` the Potency was inconclusive: 126 µM [inhibitor, single point].
`COc1cc(C(=O)OC2/C=C(\C)CCC3OC3(C)CC(O)[C@@H]2C(C)C)cc(OC)c1OC` (stereo partly specified) was tested, and the Potency was “inactive”.
In the case of `O=C(NC(=S)Nc1ccc2oc(=O)ccc2c1)c1ccccc1F`, the Potency is reported as inconclusive: 31.6 µM [inhibitor, partial curve, poor fit].
In the case of `Cc1cc(-n2c(SCC(=O)NCC3CCCO3)nc3ccsc3c2=O)ccc1F` (stereo unspecified), the Potency is reported as inconclusive: 126 µM [inhibitor, partial curve, poor fit].
For `O=C(Nc1ccc(Cl)cc1)N1CCn2c(nn(-c3ccc(F)cc3)c2=O)C1`, the Potency was inconclusive: 35.5 µM [inhibitor, full curve].
In the case of `COc1cc(/C=N/NC(=O)C23CC4CC(CC(C4)C2)C3)cc(Br)c1O`, the Potency is reported as “inactive”.
In the case of `CC(C)(C)c1ccc(C(C)(C)C)c2c1OC(c1ccccc1)O2`, the Potency is reported as inconclusive: 56.2 µM [inhibitor, full curve, poor fit].
In the case of `Cc1ccccc1-c1csc(C(C)(O)c2ccc(F)c(F)c2)n1` (stereo unspecified), the Potency is reported as inconclusive: 89.1 µM [inhibitor, single point].
In the case of `O=C(Nc1cccc2cccnc12)NC12CC3CC(CC(C3)C1)C2`, the Potency is reported as inconclusive: 63.1 µM [inhibitor, partial curve, poor fit].
`N#C/C(=C\C1=C(N2CCOCC2)C(=C\c2ccc(Cl)cc2)/CC1)C(=O)Nc1ccccc1F` was tested, and the Potency was inconclusive: 44.7 µM [inhibitor, single point].

From PubChem BioAssay AID1671190 (National Center for Advancing Translational Sciences (NCATS), 2021)
% is scaled to controls: 0 for no effect and ±100 for the full control effect; potency is read from the fitted curve at half-maximal effect.
